Our source for the binding values is paper doi:10.1101/2020.01.09.899880.

Amino acid sequences for entries named in this document (tags omitted). A change or cut given only in a name is not applied to a line headed by its entry.
UniProt P04406: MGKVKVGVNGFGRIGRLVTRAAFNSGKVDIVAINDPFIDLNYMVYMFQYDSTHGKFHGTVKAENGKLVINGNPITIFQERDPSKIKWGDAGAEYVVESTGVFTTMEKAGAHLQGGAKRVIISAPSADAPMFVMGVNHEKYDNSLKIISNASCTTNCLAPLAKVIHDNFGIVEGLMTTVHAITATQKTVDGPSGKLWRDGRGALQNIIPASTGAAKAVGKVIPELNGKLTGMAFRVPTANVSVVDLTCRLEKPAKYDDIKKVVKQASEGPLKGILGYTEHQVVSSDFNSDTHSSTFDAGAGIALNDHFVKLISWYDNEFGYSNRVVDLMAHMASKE
UniProt P02788: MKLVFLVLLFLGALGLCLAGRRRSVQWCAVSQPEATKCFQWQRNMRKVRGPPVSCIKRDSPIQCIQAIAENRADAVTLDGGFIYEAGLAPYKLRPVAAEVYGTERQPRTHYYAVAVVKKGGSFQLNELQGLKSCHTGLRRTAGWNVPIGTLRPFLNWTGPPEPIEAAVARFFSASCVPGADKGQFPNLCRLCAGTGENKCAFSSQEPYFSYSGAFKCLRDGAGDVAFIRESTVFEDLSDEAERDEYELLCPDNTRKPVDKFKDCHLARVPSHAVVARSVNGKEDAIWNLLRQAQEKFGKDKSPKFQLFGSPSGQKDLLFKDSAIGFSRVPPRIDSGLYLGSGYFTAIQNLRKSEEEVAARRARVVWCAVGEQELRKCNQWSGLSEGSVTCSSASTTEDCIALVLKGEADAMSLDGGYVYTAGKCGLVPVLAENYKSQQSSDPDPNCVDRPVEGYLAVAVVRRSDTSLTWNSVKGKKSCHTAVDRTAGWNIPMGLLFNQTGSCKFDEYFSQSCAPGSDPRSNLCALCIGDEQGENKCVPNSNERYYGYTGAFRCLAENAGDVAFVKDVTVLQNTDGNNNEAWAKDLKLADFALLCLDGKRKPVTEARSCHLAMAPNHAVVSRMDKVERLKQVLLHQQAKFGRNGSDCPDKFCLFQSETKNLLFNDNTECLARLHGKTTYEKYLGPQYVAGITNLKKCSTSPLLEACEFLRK

Like-named read-outs stand apart in the source and are kept apart here. No constants are given. Whether binding was seen depends on the method and setting. Binding seen in cells or lysates may run through a third protein. Binding can be weak; no strength is given.

Experiment [1] concerns the target GAPDH-cMyc fusion protein (human) (UniProt P04406). Nature of the experiment: co-IP.
Experiment [2] shares this target. Description: co-IP. The source holds these as a separate data set.

“lactoferrin-GFP protein (lactoferrin N domain fused to GFP) (from UniProt P02788) (domain or fragment)”: the binding entry in experiment [1] and in experiment [2] was “binds” throughout.
